Test results published in patent US20150094364A1, “METHOD OF USING THEAFLAVIN” (priority 2013, published 2015).

Test: Body weight, liver weight and liver/body ratio in ethanol-fed rats (ALD model)
Type: in vivo, Wistar rats
Settings: ethanol 6000 mg/kg BW per day, beginning of 30-day study
Method: 6-week old male rats (Wistar rats) were stabilized and then divided into 5 groups with 10 rats per group (n=10). Rats overdosed with ethanol were used as an experimental model for human ALD. Four groups of rats were fed with ethanol at a dose of 6000 mg/kg BW (50% ethanol at 12 ml/kg BW) per day for 30 days. These four groups were divided into positive control, theaflavin (low), theaflavin (mid), and theaflavin (high). Theaflavin (capsule, Xiayie) was also fed to rat at a dose of 83 mg/kg BW (low), 250 mg/kg (mid), and 500 mg/kg (high). In addition, Fifth group was fed with water as a negative control. Animals were sacrificed after the 30-day study and livers were collected for further analyses.

**Q.** For O=c1c(O)cc([C@H]2Oc3cc(O)cc(O)c3C[C@H]2O)cc2c([C@H]3Oc4cc(O)cc(O)c4C[C@H]3O)cc(O)c(O)c12 [Theaflavin, theaflavin], which “BW (beginning)” value (83 mg/kg BW theaflavin) is on record?
**A.** Its value is 193.3 ± 8.06 g.

**Q.** And the “BW (beginning)” value (250 mg/kg BW theaflavin)?
**A.** Its value is 192.3 ± 12.34 g.

**Q.** What about the “BW (beginning)” value (500 mg/kg BW theaflavin) of the same compound?
**A.** Its value is 194.3 ± 9.86 g.
